Data source: PubChem BioAssay AID1224830 (NIAID, 2016)

Purpose: 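Host factors that control LPS-induced TNF expression in human macrophages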 (primary screen)
System: human THP-1 monocytic leukaemia cells, TNF dual-luciferase reporter clone, PMA-differentiated to macrophage-like cells
Knock-down reagent: siRNA pool against human genes, 50 nM
Time to read-out: LPS for 4 h, given about 3 days after siRNA transfection
Challenge: bacterial LPS (TLR4 ligand), 10 ng/ml
Measured: 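TNF firefly reporter luminescence divided by renilla, normalised to the plate median, then turned into a robust z-score for each replicate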
Reading the numbers: TNF reporter robust z-score: higher = stronger TNF reporter response to LPS
Rule for the call: 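a well is active when its z-score exceeds 2.8 or falls below -1.5; control wells carry no call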
The whole screen tested about 18,000 reagents; this is a random part of them. Over the whole deposit, about 2,900 (16%) were called active. 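Calls are made per well; low scores hint the gene aids the LPS response, high scores that it dampens it.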 Repeated entries: four replicate wells of each siRNA pool.

gene | TNF reporter robust z-score | Outcome
SF1 (GeneID 7536) | 0.16 | inactive
SF1 (GeneID 7536) | -0.06 | inactive
SF1 (GeneID 7536) | 0.25 | inactive
LBX1 (GeneID 10660) | -0.61 | inactive
LBX1 (GeneID 10660) | -0.62 | inactive
LBX1 (GeneID 10660) | -0.9 | inactive
LBX1 (GeneID 10660) | -0.69 | inactive
SPTBN5 (GeneID 51332) | 0.13 | inactive
SPTBN5 (GeneID 51332) | 0.57 | inactive
SPTBN5 (GeneID 51332) | 0.4 | inactive
SPTBN5 (GeneID 51332) | -0.39 | inactive
SORT1 (GeneID 6272) | 0.08 | inactive
SORT1 (GeneID 6272) | -0.97 | inactive
SORT1 (GeneID 6272) | -1.16 | inactive
SORT1 (GeneID 6272) | -0.29 | inactive
RHPN2 (GeneID 85415) | -1.7 | active
RHPN2 (GeneID 85415) | -1.09 | inactive
RHPN2 (GeneID 85415) | -0.79 | inactive
RHPN2 (GeneID 85415) | 0.01 | inactive
CCDC198 (GeneID 55195) | 0.3 | inactive
CCDC198 (GeneID 55195) | -0.94 | inactive
CCDC198 (GeneID 55195) | -0.11 | inactive
CCDC198 (GeneID 55195) | -1.59 | active
TBX10 (GeneID 347853) | 0.94 | inactive
TBX10 (GeneID 347853) | 0.99 | inactive
TBX10 (GeneID 347853) | 1.26 | inactive
TBX10 (GeneID 347853) | 0.23 | inactive
NTN5 (GeneID 126147) | 1.1 | inactive
NTN5 (GeneID 126147) | 1.58 | inactive
NTN5 (GeneID 126147) | 0.74 | inactive
NTN5 (GeneID 126147) | -0.34 | inactive
TUBB4A (GeneID 10382) | -0.77 | inactive
TUBB4A (GeneID 10382) | -0.48 | inactive
TUBB4A (GeneID 10382) | 0.74 | inactive
TUBB4A (GeneID 10382) | 0.23 | inactive
OR2T29 (GeneID 343563) | -0.47 | inactive
OR2T29 (GeneID 343563) | 0.24 | inactive
OR2T29 (GeneID 343563) | 0.27 | inactive
OR2T29 (GeneID 343563) | 0.06 | inactive
ROS1 (GeneID 6098) | 1.16 | inactive
ROS1 (GeneID 6098) | 2.52 | inactive
ROS1 (GeneID 6098) | 0.18 | inactive
ROS1 (GeneID 6098) | 1.12 | inactive
FADS2 (GeneID 9415) | 21.1 | active
FADS2 (GeneID 9415) | -0.2 | inactive
FADS2 (GeneID 9415) | -1.46 | inactive
FADS2 (GeneID 9415) | 4.38 | active
EID2B (GeneID 126272) | -0.09 | inactive
EID2B (GeneID 126272) | -0.08 | inactive
EID2B (GeneID 126272) | -0.25 | inactive
EID2B (GeneID 126272) | 0.22 | inactive
TF (GeneID 7018) | -1.29 | inactive
TF (GeneID 7018) | -0.72 | inactive
TF (GeneID 7018) | -1.09 | inactive
TF (GeneID 7018) | -0.88 | inactive
C16orf86 (GeneID 388284) | 0.51 | inactive
C16orf86 (GeneID 388284) | 1.27 | inactive
C16orf86 (GeneID 388284) | -0.43 | inactive
C16orf86 (GeneID 388284) | -0.55 | inactive
JAGN1 (GeneID 84522) | 1.6 | inactive
JAGN1 (GeneID 84522) | 0.42 | inactive
JAGN1 (GeneID 84522) | 0.3 | inactive
JAGN1 (GeneID 84522) | 1.29 | inactive
NSL1 (GeneID 25936) | -0.54 | inactive
NSL1 (GeneID 25936) | 1.1 | inactive
NSL1 (GeneID 25936) | 0.44 | inactive
NSL1 (GeneID 25936) | 1.37 | inactive
SLC5A6 (GeneID 8884) | 0.94 | inactive
SLC5A6 (GeneID 8884) | 1.15 | inactive
SLC5A6 (GeneID 8884) | 0.76 | inactive
SLC5A6 (GeneID 8884) | 0.48 | inactive
ZNF696 (GeneID 79943) | 1.49 | inactive
ZNF696 (GeneID 79943) | 0.72 | inactive
ZNF696 (GeneID 79943) | 0.6 | inactive
ZNF696 (GeneID 79943) | 0.41 | inactive
PCDHA1 (GeneID 56147) | -0.93 | inactive
PCDHA1 (GeneID 56147) | -0.32 | inactive
PCDHA1 (GeneID 56147) | -0.87 | inactive
ADCK2 (GeneID 90956) | -0.27 | inactive
ADCK2 (GeneID 90956) | 1.23 | inactive
ADCK2 (GeneID 90956) | -0.26 | inactive
ADCK2 (GeneID 90956) | 0.89 | inactive
SCUBE3 (GeneID 222663) | 0.09 | inactive
SCUBE3 (GeneID 222663) | 1.43 | inactive
SCUBE3 (GeneID 222663) | -0.15 | inactive
SCUBE3 (GeneID 222663) | 0.95 | inactive
AKIRIN2 (GeneID 55122) | 0.31 | inactive
AKIRIN2 (GeneID 55122) | 0.91 | inactive
AKIRIN2 (GeneID 55122) | -0.94 | inactive
AKIRIN2 (GeneID 55122) | -0.87 | inactive
ARHGAP20 (GeneID 57569) | -1.28 | inactive
ARHGAP20 (GeneID 57569) | -1.03 | inactive
ARHGAP20 (GeneID 57569) | -1.04 | inactive
ARHGAP20 (GeneID 57569) | -0.89 | inactive
SLC12A1 (GeneID 6557) | 0.06 | inactive
SLC12A1 (GeneID 6557) | 0.24 | inactive
SLC12A1 (GeneID 6557) | -0.14 | inactive
SLC12A1 (GeneID 6557) | -0.02 | inactive
LRIT3 (GeneID 345193) | -0.68 | inactive
LRIT3 (GeneID 345193) | 0.57 | inactive
LRIT3 (GeneID 345193) | 0.14 | inactive
LRIT3 (GeneID 345193) | -0.36 | inactive
PLPP1 (GeneID 8611) | -1.42 | inactive
PLPP1 (GeneID 8611) | -1.79 | active
PLPP1 (GeneID 8611) | -1.92 | active
PLPP1 (GeneID 8611) | -1.6 | active
CCDC144BP (GeneID 284047) | -0.65 | inactive
CCDC144BP (GeneID 284047) | 0.19 | inactive
CCDC144BP (GeneID 284047) | -0.32 | inactive
CCDC144BP (GeneID 284047) | 1.07 | inactive
